Out of some 400,000 compounds screened, about 13,000 (3.2%) were called active. The inconclusive results got no clear call from the source; some entries with a clear call stand among them for comparison. Calls follow the shape of the dose curve; as a rule, active = well fitted cell-killing curve with a large enough effect; inconclusive = small, poorly fitted or top-dose-only effect, or effect the other way; inactive = flat fitted curve, though single readings scatter. A potency beside an inconclusive call is a rough fit, not a confirmed value.
Assay: qHTS assay for MDR1-selective chemotherapeutics: Primary screen using the drug-selected MDR subline cells KB-V1; also: nearly all actives have a fitted effect of over 60% in size
Details: KB-V1 MDR cells viability, CellTiter-Glo, 72 h; activity change, negative = cytotoxicity: at 46.1 µM (top of the series)
How it was run: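 Readout: CellTiter-Glo luminescence, 10 min after addition. Cells: KB-V1 MDR subline, 72 h at 37 degrees C with compound. Analysis: corrected, normalized data fitted to concentration-effect curves.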
% is scaled to controls: 0 for no effect and ±100 for the full control effect; potency is read from the fitted curve at half-maximal effect.

Structure (SMILES) | activity change, negative = cytotoxicity | Potency
CN(CC(=O)Nc1ccc(F)cc1)C(=O)c1cn(-c2ccccc2)nc1-c1cccs1 | inactive: -2.22% | –
COc1ccc(C2c3ccc4ccccc4c3Oc3ncn(Cc4ccco4)c(=N)c32)cc1OC (stereo not given) | – | inconclusive: 18.4 µM [cytotoxic, partial curve, poor fit]
COc1ccc(CN2C(=O)c3ccccc3C2=O)cc1C(=O)OCC(=O)NC1CCCCC1 | – | inconclusive: 18.4 µM [cytotoxic, single point]
Nc1nonc1C(=O)NCCNCc1cc(Br)ccc1OCc1ccc(F)cc1 | – | inconclusive: 5.62 µM [cytotoxic, partial curve]
COc1ccc(NC(=O)c2sccc2C)c([N+](=O)[O-])c1 | – | inconclusive: 29.1 µM [cytotoxic, single point]
Cc1cccn2c(=O)c(/C=C(\C#N)c3nc4ccccc4[nH]3)c(Oc3ccc(C(C)(C)C)cc3)nc12 | inactive: 17.8% | –
CC(C)(C)c1cc(C(=O)Nc2ccc(F)cc2)n(Cc2ccc(F)cc2)n1 | – | inconclusive: 20.6 µM [cytotoxic, single point]
COc1ccc(NC(=O)c2ccc(N3C(=O)C4CC=C(Cl)CC4C3=O)cc2)cc1 (stereo not given) | inactive: 13.9% | –
Cc1ccc2oc(-c3ccc(NC(=O)c4ccc5c(c4)OCO5)cc3)nc2c1 | – | inconclusive: 2.59 µM [cytotoxic, full curve]
CNC(=O)C(=O)NCC1CCCN1S(=O)(=O)c1cccs1 (stereo not given) | inactive: 17.6% | –
O=C(O)CN=C(Nc1cc(Cl)cc(Cl)c1)NC(c1ccccc1)c1ccccc1 | inactive: 12.1% | –
CCOCCCNC(=O)C1CCCCN1S(=O)(=O)c1ccc(F)cc1 (stereo not given) | – | inconclusive: 23.1 µM [cytotoxic, partial curve]
O=C(NCc1ccc(F)cc1)c1cc2n(n1)CCCN(Cc1ccc(F)cc1)C2=O | inactive: -24.9% | –
Cc1ccc(C(=O)Nc2sc3c(c2C(=O)NCc2ccco2)CCC(C(C)(C)C)C3)cc1 (stereo not given) | – | inconclusive: 18.4 µM [rising, partial curve]
Cc1ccc(C)c(N2CCN(CCCNC(=O)c3cnn(-c4ccccc4Cl)c3C3CCN(C(=O)OC(C)(C)C)CC3)CC2)c1 | – | inconclusive: 16.4 µM [cytotoxic, single point]
Cc1cc(=O)[nH]c(SCC(=O)Nc2ccc(Br)cc2)c1C#N | – | inconclusive: 20.6 µM [cytotoxic, single point]
O=S(=O)(c1ccc2ccccc2c1)N1CCN(C2Cc3ccccc3C2)CC1 | – | inconclusive: 25.9 µM [cytotoxic, single point]
O=C(CCS(=O)(=O)c1ccccc1)NCc1ccccc1 | – | inconclusive: 18.4 µM [rising, partial curve]
CCCC1=NN(C(=O)Cc2ccc(OC)cc2)C(O)(C(F)(F)F)C1 (stereo not given) | – | inconclusive: 23.1 µM [cytotoxic, single point]
Cc1ccc(-c2nc3n(n2)C(=O)CC(c2ccc(Cl)cc2)S3)cc1 (stereo not given) | – | inconclusive: 20.6 µM [rising, single point]
Cc1ccc(OCC(=O)OCc2cc(=O)n3nc(-c4cccs4)sc3n2)cc1C | inactive: 2.19% | –
CC(Oc1ccccc1)C(=O)Nc1c2c(nn1-c1ccccc1)CS(=O)(=O)C2 (stereo not given) | – | inconclusive: 29.1 µM [cytotoxic, partial curve, poor fit]
Cc1cc(Cl)ccc1NC(=O)C(=O)NCc1ccco1 | inactive: -4.81% | –
Cc1ccc(N2CC(C(=O)NCc3cccs3)CC2=O)cc1C (stereo not given) | – | inconclusive: 2.31 µM [cytotoxic, full curve]

Structure (SMILES) | activity change, negative = cytotoxicity | Potency
Cc1cc(CC(C)C)n(-c2nc3ccccc3c(=O)n2OCC(N)=O)n1 | – | inconclusive: 16.4 µM [cytotoxic, single point]
NC(=O)c1ccsc1NC(=O)CS(=O)(=O)c1ccc(F)cc1 | inactive: -2.43% | –
O=C(NC1CCOc2ccccc21)C1CCCC1 (stereo not given) | – | inconclusive: 0.206 µM [cytotoxic, full curve]
Cc1ccc(Cl)cc1N1CCN(Cc2nc3c(c(=O)[nH]c(=O)n3C)n2Cc2ccccc2F)CC1 | – | inconclusive: 0.517 µM [cytotoxic, single point]
COc1cccc(-c2ccc3ncnc(NCc4cccnc4)c3c2)c1 | inactive: -9.51% | –
Cc1cc(C)c(S(=O)(=O)Nc2ccccc2C(=O)OCC(=O)NCc2ccccc2)c(C)c1 | – | inconclusive: 25.9 µM [cytotoxic, single point]
O=C(O)CSc1nc(-c2ccccc2)c(-c2ccccc2)[nH]1 | inactive: 8.99% | –
CCOC(=O)c1c(C)[nH]c(C)c1C(=O)COC(=O)/C=C/c1ccc(OC)cc1 | – | active: 13 µM
CCN(c1ccccc1)S(=O)(=O)c1ccc(C(=O)Oc2ccc(C(C)=O)cc2)cc1 | inactive: -16.1% | –
Cc1ccc2[nH]c3c(N4CCN(Cc5ccccc5)CC4)ncnc3c2c1 | – | active: 11.6 µM
Cc1ccc(NS(=O)(=O)c2ccc3c(c2)c(=O)n(C)c(=O)n3C)cc1F | – | inconclusive: 29.1 µM [cytotoxic, single point]
CCOC(=O)c1c(NC(=O)CSc2nnc(-c3ccco3)o2)sc(C(C)=O)c1C | inactive: -28.3% | –
CCCCNC(=O)c1cccc(-n2c(C)nc3cccnc32)c1 | inactive: 2.29% | –
Fc1ccc2c(c1)-c1nc(-c3ccccc3)cc(-c3ccccc3)c1CO2 | – | inconclusive: 29.1 µM [rising, single point]
O=S1(=O)CC(N2CCCCC2)CN1CCc1ccccc1 (stereo not given) | inactive: 16.5% | –
Cn1c(=NC(=O)CS(=O)(=O)c2ccccc2)sc2cc([N+](=O)[O-])ccc21 | inactive: 3.04% | –
O=C(Nc1nnc(-c2cccnc2)s1)c1cccs1 | – | inconclusive: 20.6 µM [cytotoxic, partial curve, poor fit]
O=[N+]([O-])c1ccc(-c2ccc(/C=N/Nc3nc(N4CCCCC4)nc(N4CCCCC4)n3)o2)cc1 | inactive: -1.85% | –
O=C(NCc1ccccc1)Nc1cccn(Cc2ccccc2)c1=O | – | inconclusive: 16.4 µM [cytotoxic, partial curve]
CN(CC(=O)Nc1ccccc1Br)C(=O)c1cccnc1Nc1cccc(C(F)(F)F)c1 | – | inconclusive: 14.6 µM [cytotoxic, single point]
C=CCOC1=CS(=O)(=O)N(Cc2ccc(Br)cc2)c2ccc(Br)cc21 | – | inconclusive: 29.1 µM [cytotoxic, single point]
Cc1c(NC(=O)Nc2ccccc2C(F)(F)F)sc2nc3n(c(=O)c12)CCC(C)CC3 (stereo not given) | – | inconclusive: 11.6 µM [rising, single point]
Cc1ccc(C(=O)OCc2nnc(-c3ccccc3)o2)cc1S(=O)(=O)N1CCOCC1 | inactive: 25% | –
Cc1cccc(OCC(=O)NNC(=O)c2cc3ccccc3oc2=O)c1 | – | inconclusive: 29.1 µM [cytotoxic, single point]

Two entries from above in another layout:
Structure (SMILES),"activity change, negative = cytotoxicity",Potency
CNC(=O)C(=O)NCC1CCCN1S(=O)(=O)c1cccs1 (stereo not given),inactive: 17.6%,–
Cn1c(=NC(=O)CS(=O)(=O)c2ccccc2)sc2cc([N+](=O)[O-])ccc21,inactive: 3.04%,–

Following part:

Structure (SMILES) | activity change, negative = cytotoxicity | Potency
CCOc1cc(C(=O)N2CCn3c4c(c5cc(C)ccc53)CCCC42)cc(OCC)c1OCC (stereo not given) | – | inconclusive: 9.2 µM [cytotoxic, partial curve, poor fit]
O=C(NCC(c1ccc(F)cc1)N1CCOCC1)c1cccnc1Sc1ccc(Cl)cc1 (stereo not given) | – | inconclusive: 11.6 µM [cytotoxic, partial curve, poor fit]
CCOc1ccccc1NC(=O)c1cc(SC)ccc1Cl | – | inconclusive: 20.6 µM [cytotoxic, partial curve]
CCOC(=O)c1c(NC(=O)C2=C(C)NC(=S)NC2c2ccc(F)cc2)sc(C)c1C (stereo not given) | – | inconclusive: 20.6 µM [cytotoxic, partial curve]
COc1ccc(CC(=O)Nc2ccccc2N2CCCC2)cc1 | inactive: -2.88% | –
COc1ccc(OC)c(NC(=O)c2cc(OC(C)=O)cc(C(=O)Nc3cc(OC)ccc3OC)c2)c1 | inconclusive: -57.8% | –
O=C(Nc1nnc(-c2ccncc2)s1)NC12CC3CC(CC(C3)C1)C2 | inactive: 5.86% | –
O=C(Nc1ccc2c(c1)OCO2)C1(S(=O)(=O)c2ccc(Cl)cc2)CC1 | – | inconclusive: 29.1 µM [cytotoxic, single point]
CCCCn1nc2cc(C(=O)NCCc3ccc(C)cc3)ccc2c1OCC | – | inconclusive: 14.6 µM [cytotoxic, single point]
C=CCn1c(=O)c2ccccc2n2c(SCc3csc(-c4ccccc4)n3)nnc12 | – | inconclusive: 23.1 µM [cytotoxic, partial curve, poor fit]
CCOc1ccc(CNS(=O)(=O)c2ccc(-c3coc(C)n3)cc2)cc1 | inactive: -7.72% | –
O=C(CSC1=NCCN1)NC1CCCCCC1 | inactive: -3.63% | –
COc1cccc(NC(=O)c2c(C)nn(-c3ccccc3)c2Cl)c1 | – | inconclusive: 29.1 µM [cytotoxic, single point]
O=C(CC1C(=O)NCCN1Cc1ccc(-c2ccccc2)cc1)NCC1CC1 (stereo not given) | – | inconclusive: 29.1 µM [cytotoxic, single point]
O=C(Nc1ccc(Cl)cc1C(=O)NCc1cccnc1)c1ccc(Cl)cc1Cl | inconclusive: -94.5% | –
O=C(CCSc1ccccc1Cl)Nc1cccc([N+](=O)[O-])c1 | – | inconclusive: 29.1 µM [cytotoxic, single point]
CN1C(=O)[C@H]2[C@@H](/C=C/c3ccccc3)N3C(=O)CN(CC4CC4)C(=O)[C@@]3(C)[C@H]2C1=O | inactive: 11% | –
Fc1ccc(/C=N/NC2=Nc3cccc4cccc2c34)cc1 | – | inconclusive: 20.6 µM [cytotoxic, partial curve, poor fit]
CC(C)(C)NC(=O)C(=O)NN=C1CCCCCCCCCCC1 | inconclusive: 7.05% | –
CC1(C)C(=O)N(CC(=O)Nc2ccc(Br)cc2F)c2ccccc21 | inactive: -18.5% | –
O=C(CSc1nc2ccccc2c(=O)n1-c1ccccc1)N1CCc2ccccc2C1 | – | inconclusive: 29.1 µM [cytotoxic, single point]
CC(C)(C)NS(=O)(=O)c1ccc(N2C(=O)c3ccccc3C2=O)cc1 | inactive: 2.96% | –
